Patent publication US20110046348 (published 2011)
* marks the point of attachment. Boc = CC(C)(C)OC(=O)*; NHNH2 = NN*

Experiment: general procedure: Fmoc solid-phase peptide synthesis; Fmoc-Gly-SASRIN resin (Bachem, substitution 0.79 mmol/g)
Settings: whole synthesis, capillary electrophoresis; for crude HPLC purity: analytical RP HPLC, LC-MS

**Q.** With Boc-FD(NHNH2)K(Boc)D(NHNH2)FAFG-NHNH2 as the substance, how does the “crude HPLC purity” value read?
**A.** 84%

**Q.** Which “final purity (method not given)” value does the source give for “[GLP-1] [[D-Ala^2, Gly^31]-PEG12]-Gly-N2H3” here?
**A.** greater than 94%

**Q.** Which “crude HPLC purity” value does the source give for “Boc-Phe-Asp(NH—NH2)-Lys(Boc)-Asp(OMpe)-Phe-Ala-Phe-Gly-NH—NH2” here?
**A.** 56%
